Results from one PubChem assay

The results are deposited in PubChem (AID1053133; Broad Institute, 2014).

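Plate-reader measure of the Venus reporter marking one vaccinia stage in infected cells (the cell line is not named here); read time unknown. The test concentration is not given here. Percent change in Venus reporter signal; lower (more negative) values mean stronger inhibition of that viral stage.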

Values are in %. The controls that fix the scale are not given here. Common to all entries: measured here: Venus reporter, other viral stage. Part of the compounds only, not a random draw; the main read-out is not listed here.

| compound | activity change (Venus) (%) |
|---|---|
| `C[C@@H]1CN([C@@H](C)CO)C(=O)c2cc(NC(=O)C3CC3)ccc2O[C@H]1CN(C)Cc1ccc(Cl)c(Cl)c1` | -29.31 |
| `COc1ccccc1CNC(=O)C[C@@H]1CC[C@@H]2[C@H](COC[C@@H](O)CN2C(=O)Nc2ccc(Cl)cc2)O1` | -24.41 |
| `CN1C(=O)c2cc(NC(=O)c3ccc(C(F)(F)F)cc3)ccc2OC[C@H]2O[C@H](CC(=O)NC3Cc4ccccc4C3)CC[C@@H]21` | -43.08 |
| `COc1ccccc1S(=O)(=O)N1C[C@@H]2N[C@H](C1)C2c1ccc(-c2ccccc2)cc1` (stereo partly shown) | -41.43 |
| `COc1ccc(NC(=O)Nc2ccc3c(c2)C(=O)N([C@@H](C)CO)C[C@H](C)[C@@H](CN(C)Cc2ccc(Cl)c(Cl)c2)O3)cc1` | -25.22 |
| `Cc1cccc(-c2ccc([C@@H]3[C@H]4CN(CCC(F)(F)F)CCCCN4[C@H]3CO)cc2)c1` | -35.83 |
| `O=C(Nc1ccccc1)N1CC(=O)N2[C@H](CO)[C@H](c3ccc(C#CC4CCCC4)cc3)[C@H]2C1` | -29.47 |
| `COc1ccc(C#Cc2ccc3c(c2)O[C@H](CN(C)C)[C@@H](C)CN([C@@H](C)CO)S3(=O)=O)cc1` | -28.52 |
| `CC(C)CC#Cc1ccc2c(c1)O[C@@H](CN(C)Cc1cncnc1)[C@H](C)CN([C@H](C)CO)S2(=O)=O` | -56.47 |
| `COc1ccc(NC(=O)Nc2ccc3c(c2)CC(=O)N([C@@H](C)CO)C[C@H](C)[C@H](CN(C)Cc2ccc(-c4ccccc4)cc2)O3)cc1` | -16.66 |
| `C[C@@H]1CCCCO[C@@H](CN(C)CC2CCCCC2)[C@@H](C)CN([C@@H](C)CO)C(=O)c2cc(NC(=O)c3ccccc3)ccc2O1` | -57.56 |
| `C[C@@H]1CN([C@@H](C)CO)C(=O)c2cc(NC(=O)Nc3ccc(F)cc3)ccc2O[C@H]1CN(C)Cc1ccc(C(F)(F)F)cc1` | -62.82 |
| `C[C@@H]1CCCCO[C@H](CN(C)CC2CCCCC2)[C@H](C)CN([C@H](C)CO)C(=O)c2cc(NS(=O)(=O)c3ccc(F)cc3)ccc2O1` | -76.48 |
| `C[C@@H]1CCCCO[C@H](CN(C)Cc2ccccc2)[C@@H](C)CN([C@@H](C)CO)C(=O)c2cc(NC(=O)Nc3ccc(C(F)(F)F)cc3)ccc2O1` | -59.26 |
| `O=C(C[C@@H]1CC[C@H]2[C@@H](COC[C@@H](O)CN2C(=O)Nc2cc(Cl)cc(Cl)c2)O1)NCC1CCCCC1` | -28.81 |
| `O=C(C[C@@H]1CC[C@H]2[C@@H](COC[C@@H](O)CN2C(=O)c2ccc(F)cc2)O1)Nc1ccc(-c2ccccc2)cc1` | -33.35 |
| `COc1ccc2c3c([nH]c2c1)[C@H](CO)N(Cc1ccc(F)cc1)CC31CCN(C)CC1` | -48.93 |
| `O=S(=O)(c1cccs1)N1CCCCN2[C@@H](CO)[C@@H](c3ccc(/C=C/c4ccccc4)cc3)[C@@H]2C1` | -28.7 |
| `Cc1ccccc1-c1ccc([C@@H]2[C@@H](CO)N3CCCCN(S(=O)(=O)Cc4ccccc4)C[C@H]23)cc1` | -56.64 |
| `C[C@@H]1CN([C@@H](C)CO)C(=O)Cc2cc(NC(=O)C3CCCCC3)ccc2O[C@H]1CN(C)Cc1ccccc1` | -51.01 |
| `C=CC[C@@]12N=C(c3ccc(OCCCO)cc3)O[C@@H]1c1ccccc1CN(CCS(=O)(=O)c1ccccc1)C2=O` | -23 |
| `C[C@H](CO)N1C[C@H](C)[C@H](CN(C)CC2CC2)Oc2cc(C#Cc3ccc(F)cc3)ccc2S1(=O)=O` | -33.92 |
| `C[C@H](CO)N1C[C@H](C)[C@@H](CN(C)Cc2ccccc2)OCCCC[C@H](C)Oc2ccc(NS(=O)(=O)c3ccc(F)cc3)cc2C1=O` | -27.9 |
| `COc1ccc(C#Cc2ccc([C@H]3[C@H](CO)N4CCCCN(C(=O)Nc5ccccc5)C[C@@H]34)cc2)cc1` | -44.27 |
| `COc1ccccc1C#Cc1ccc([C@@H]2[C@@H](CO)N3CCCCN(CCC(F)(F)F)C[C@H]23)cc1` | -47.4 |
| `Cc1noc(C)c1NC(=O)Nc1ccc2c(c1)C(=O)N([C@@H](C)CO)C[C@@H](C)[C@H](CN(C)Cc1ccc(Cl)c(Cl)c1)OCCCC[C@H](C)O2` | -51.93 |
| `O=C(C[C@@H]1C=C[C@H](NC(=O)Nc2ccccc2F)[C@H](CO)O1)NCc1ccc(-c2ccccc2)cc1` | -24.91 |
| `C[C@H](CO)N1C[C@H](C)[C@@H](CN(C)Cc2ccc(-c3ccccc3)cc2)Oc2ncc(-c3cccnc3)cc2C1=O` | -87.97 |
| `COc1cccc(S(=O)(=O)N2CCC3(CC2)CN(C(=O)Nc2ccc(F)cc2)[C@@H](CO)c2[nH]c4cc(OC)ccc4c23)c1` | -31.73 |
| `C[C@@H]1CN([C@H](C)CO)C(=O)c2cc(NC(=O)NC3CCCCC3)ccc2O[C@H]1CN(C)Cc1ccc(Cl)c(Cl)c1` | -37.34 |
| `CO[C@H](CN(C)S(=O)(=O)c1ccc(Cl)cc1)[C@H](C)CN([C@@H](C)CO)S(=O)(=O)c1cccc(Cl)c1` | -37.86 |
| `C[C@@H]1CN([C@@H](C)CO)S(=O)(=O)c2ccc(C#Cc3ccccc3)cc2O[C@@H]1CN(C)C(=O)c1ccccn1` | -37.82 |
| `O=S(=O)(c1cccs1)N1CCCCN2[C@H](CO)[C@H](c3ccc(C4=CCCCC4)cc3)[C@H]2C1` | -41.69 |
| `C[C@H]1CN([C@@H](C)CO)S(=O)(=O)c2ccc(C3=CCCCC3)cc2O[C@H]1CN(C)Cc1ccccn1` | -51.25 |
| `C=CC[C@@]1(C(=O)OC)N=C(c2ccc(OCCCO)cc2)O[C@@H]1c1ccccc1CN=[N+]=[N-]` | -13.89 |
| `O=C(C[C@H]1CC[C@@H]2[C@H](COC[C@@H](O)CN2Cc2cccc(C(F)(F)F)c2)O1)NCc1ccc(F)cc1` | -34.2 |
| `C[C@@H]1CN([C@@H](C)CO)C(=O)Cc2cc(NS(=O)(=O)c3ccc(Cl)cc3)ccc2O[C@H]1CN(C)Cc1ccccc1` | -39.34 |

For reference, 4 entries once more:

* COc1ccc2c3c([nH]c2c1)[C@H](CO)N(Cc1ccc(F)cc1)CC31CCN(C)CC1 : activity change (Venus) -48.93%
* COc1ccccc1CNC(=O)C[C@@H]1CC[C@@H]2[C@H](COC[C@@H](O)CN2C(=O)Nc2ccc(Cl)cc2)O1 : activity change (Venus) -24.41%
* O=C(C[C@H]1CC[C@@H]2[C@H](COC[C@@H](O)CN2Cc2cccc(C(F)(F)F)c2)O1)NCc1ccc(F)cc1 : activity change (Venus) -34.2%
* O=C(C[C@@H]1CC[C@H]2[C@@H](COC[C@@H](O)CN2C(=O)c2ccc(F)cc2)O1)Nc1ccc(-c2ccccc2)cc1 : activity change (Venus) -33.35%